Source: PubChem BioAssay AID220 (DTP/NCI, 2004)
The list is a part of this screen's results and no random one: it gathers tests that were run many times, whatever their T/C, doses with no T/C, and many T/C values between a quarter and a half above the control. Further doses and runs are listed elsewhere. T/C is the treated group as % of the vehicle group. Schedule codes are those of the source, read here as Q, the interval in days (D) or hours (H), X, the number of doses. Some entries give survivors of the animals treated and no T/C: the source files T/C as zero there, which appears to mark a toxic dose or a test without result, not a measured value. Survivors were counted at the toxicity check, usually on the fifth day, unless a day is given; later deaths do not show. Some doses were run more than once; the results are listed from low to high.

System: CD8F1 mice, subcutaneous mammary adenocarcinoma, T/C%
Experiment: NCI In Vivo Anticancer Drug Screen. Data for tumor model Mammary Adenocarcinoma CD8F1 (subcutaneous) in CD8F1
Details: higher T/C = larger tumour
How it was run: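 Mice carrying transplanted tumors received test compound, and survival or tumor size was recorded. Each value is the treated-group measurement divided by the corresponding measurement in vehicle-dosed controls.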

[1] = T/C endpoint: median tumor weight change, dose: 2000.0 mg/kg/injection, schedule: Q01DX001 (ip), vehicle: saline with Tween-80
[2] = T/C endpoint: median tumor weight change, dose: 125.0 mg/kg/injection, schedule: Q01DX001 (ip), vehicle: saline
[3] = T/C endpoint: median tumor weight change, dose: 500.0 mg/kg/injection, schedule: Q01DX001 (ip), vehicle: saline
[4] = T/C endpoint: median tumor weight change, dose: 2000.0 mg/kg/injection, schedule: Q01DX001 (ip), vehicle: saline
[5] = T/C endpoint: median tumor weight change, dose: 1000.0 mg/kg/injection, schedule: Q01DX001 (ip), vehicle: saline with Tween-80
[6] = T/C endpoint: median tumor weight (est.), dose: 25.0 mg/kg/injection, schedule: Q07DX005 (ip), vehicle: saline with Tween-80, evaluated on day 30

**Q.** Which results are given for `COC1CC(C)C(OC)C2=CC(=O)C=C(NC(=O)/C(C)=C/C=C\C(C)C(OC(N)=O)/C(C)=C\C(C)C1OC)C2=O` (stereo not drawn)?
**A.** survivor count (T/C endpoint: median tumor weight change, dose: 50.0 mg/kg/injection, schedule: Q01DX001 (ip), vehicle: saline + alcohol): 3 of 10 on day 35; survivor count (T/C endpoint: median tumor weight change, dose: 100.0 mg/kg/injection, schedule: Q01DX001 (ip), vehicle: saline + alcohol): 2 of 10 on day 35

**Q.** How did the survivor count (T/C endpoint: median tumor weight change, dose: 125.0 mg/kg/injection, schedule: Q01DX001 (ip), vehicle: Klucel (hydroxypropylcellulose) (HPC)) turn out when `C=C(Cl)C(=NC(C)(C)C)Nc1ccccc1C` was run?
**A.** 3 of 10 on day 36

**Q.** What about the survivor count (T/C endpoint: median tumor weight change, dose: 250.0 mg/kg/injection, schedule: Q01DX001 (ip), vehicle: Klucel (hydroxypropylcellulose) (HPC)) of the same molecule?
**A.** 0 of 10 on day 36

**Q.** What about the survivor count (T/C endpoint: median tumor weight change, dose: 500.0 mg/kg/injection, schedule: Q01DX001 (ip), vehicle: Klucel (hydroxypropylcellulose) (HPC)) of the same molecule?
**A.** 1 of 10 on day 36

**Q.** With `N=C(N)Sc1ccccn1` as the molecule, how does the T/C (T/C endpoint: median tumor weight (est.), dose: 100.0 mg/kg/injection, schedule: Q07DX005 (ip), vehicle: suspension in saline, evaluated on day 30) read?
**A.** 136 % of control

**Q.** Which T/C (T/C endpoint: median tumor weight (est.), dose: 50.0 mg/kg/injection, schedule: Q07DX005 (ip), vehicle: saline with Tween-80, evaluated on day 30) does the source give for `CN1CCN(CCCN2c3ccccc3Sc3ccc(C(F)(F)F)cc32)CC1` here?
**A.** 149 % of control

**Q.** `CC(C#N)(C#N)N=Nc1ccc(Cl)cc1Cl` was tested. Which T/C (T/C endpoint: median tumor weight change, dose: 250.0 mg/kg/injection, schedule: Q01DX001 (ip), vehicle: saline with Tween-80, evaluated on day 28) did it give?
**A.** 133 % of control

**Q.** What about the survivor count [1] of the same molecule?
**A.** 0 of 9 on day 28

**Q.** For `NC(=O)/C=C/C(=O)c1c(Cl)cccc1Cl`, which survivor count (T/C endpoint: median tumor weight change, dose: 12.5 mg/kg/injection, schedule: Q01DX001 (ip), vehicle: saline with Tween-80) is on record?
**A.** 6 of 10 on day 29

**Q.** What about the survivor count (T/C endpoint: median tumor weight change, dose: 24.0 mg/kg/injection, schedule: Q01DX001 (ip), vehicle: saline with Tween-80) of the same molecule?
**A.** 6 of 10 on day 30

**Q.** What about the T/C (T/C endpoint: median tumor weight change, dose: 25.0 mg/kg/injection, schedule: Q01DX001 (ip), vehicle: saline with Tween-80, evaluated on day 32) of the same molecule?
**A.** 136 % of control

**Q.** What about the survivor count (T/C endpoint: median tumor weight change, dose: 25.0 mg/kg/injection, schedule: Q01DX001 (ip), vehicle: saline with Tween-80) of the same molecule?
**A.** 3 of 10 on day 29

**Q.** What about the survivor count (T/C endpoint: median tumor weight change, dose: 50.0 mg/kg/injection, schedule: Q01DX001 (ip), vehicle: saline with Tween-80) of the same molecule?
**A.** 0 of 10 on day 29

**Q.** What about the survivor count (T/C endpoint: median tumor weight change, dose: 100.0 mg/kg/injection, schedule: Q01DX001 (ip), vehicle: saline with Tween-80) of the same molecule?
**A.** 0 of 10 on day 29

**Q.** And the survivor count (T/C endpoint: median tumor weight change, dose: 200.0 mg/kg/injection, schedule: Q01DX001 (ip), vehicle: saline with Tween-80)?
**A.** 0 of 10 on day 29 and 0 of 10 on day 32

**Q.** Which results are given for `C1CNCOC1`?
**A.** survivor count [2]: 6 of 10 on day 36; survivor count (T/C endpoint: median tumor weight change, dose: 400.0 mg/kg/injection, schedule: Q01DX001 (ip), vehicle: saline): 2 of 7 on day 29; survivor count [3]: 1 of 10 on day 36; survivor count (T/C endpoint: median tumor weight change, dose: 800.0 mg/kg/injection, schedule: Q01DX001 (ip), vehicle: saline): 0 of 8 on day 29; survivor count (T/C endpoint: median tumor weight change, dose: 1000.0 mg/kg/injection, schedule: Q01DX001 (ip), vehicle: saline): 0 of 10 on day 36; survivor count [4]: 0 of 10 on day 36

**Q.** With `COC1/C=C/O[C@@]2(C)Oc3c(C)c(O)c4c(O)c(cc(O)c4c3C2=O)NC(=O)/C(C)=C\C=C\[C@H](C)C(O)[C@@H](C)[C@@H](O)[C@@H](C)[C@H](OC(C)=O)[C@@H]1C` (stereo partly drawn) as the molecule, how does the T/C (T/C endpoint: median tumor weight change, dose: 62.0 mg/kg/injection, schedule: Q01DX001 (ip), vehicle: saline with Tween-80, evaluated on day 25) read?
**A.** 142 % of control

**Q.** And the T/C (T/C endpoint: median tumor weight change, dose: 125.0 mg/kg/injection, schedule: Q01DX001 (ip), vehicle: saline with Tween-80, evaluated on day 25)?
**A.** 138 % of control

**Q.** What about the T/C (T/C endpoint: median tumor weight change, dose: 250.0 mg/kg/injection, schedule: Q01DX001 (ip), vehicle: saline with Tween-80, evaluated on day 25) of the same molecule?
**A.** 146 % of control

**Q.** What about the T/C (T/C endpoint: median tumor weight change, dose: 500.0 mg/kg/injection, schedule: Q01DX001 (ip), vehicle: saline with Tween-80, evaluated on day 25) of the same molecule?
**A.** 144 % of control

**Q.** What about the survivor count [5] of the same molecule?
**A.** 1 of 10 on day 29 and 3 of 10 on day 25

**Q.** What does the source list for `CS(=O)(=O)OCCN(CCOS(C)(=O)=O)c1ccc(C=O)cc1`?
**A.** T/C (T/C endpoint: median tumor weight (est.), dose: 6.25 mg/kg/injection, schedule: Q07DX005 (ip), vehicle: saline with Tween-80, evaluated on day 30): 147 % of control; T/C [6]: 132 % of control; survivor count (T/C endpoint: median tumor weight (est.), dose: 100.0 mg/kg/injection, schedule: Q07DX005 (ip), vehicle: saline with Tween-80): 3 of 10 on day 30 and 6 of 10 on day 30; survivor count (T/C endpoint: median tumor weight (est.), dose: 200.0 mg/kg/injection, schedule: Q07DX005 (ip), vehicle: saline with Tween-80): 0 of 10 on day 30

**Q.** With `NC(=O)c1csc(C2OC(CO)C(O)C2O)n1` (stereo not drawn) as the molecule, how does the survivor count (T/C endpoint: median tumor weight change, dose: 2000.0 mg/kg/injection, schedule: Q01DX001 (ip), vehicle: water) read?
**A.** 4 of 10 on day 28

**Q.** For `OCCCN1CCCCC1CO` (stereo not drawn), which survivor count [4] is on record?
**A.** 1 of 10 on day 31

**Q.** `CCS/C(SC)=C(/c1ccccc1)[P+](c1ccccc1)(c1ccccc1)c1ccccc1` was tested. Which survivor count (T/C endpoint: median tumor weight change, dose: 7.5 mg/kg/injection, schedule: Q01DX001 (ip), vehicle: Klucel (hydroxypropylcellulose) (HPC)) did it give?
**A.** 5 of 10 on day 29

**Q.** What about the survivor count (T/C endpoint: median tumor weight change, dose: 15.0 mg/kg/injection, schedule: Q01DX001 (ip), vehicle: Klucel (hydroxypropylcellulose) (HPC)) of the same molecule?
**A.** 2 of 10 on day 29

**Q.** What about the survivor count (T/C endpoint: median tumor weight change, dose: 30.0 mg/kg/injection, schedule: Q01DX001 (ip), vehicle: Klucel (hydroxypropylcellulose) (HPC)) of the same molecule?
**A.** 0 of 10 on day 29

**Q.** What about the survivor count (T/C endpoint: median tumor weight change, dose: 60.0 mg/kg/injection, schedule: Q01DX001 (ip), vehicle: Klucel (hydroxypropylcellulose) (HPC)) of the same molecule?
**A.** 0 of 10 on day 29

**Q.** And the survivor count (T/C endpoint: median tumor weight change, dose: 120.0 mg/kg/injection, schedule: Q01DX001 (ip), vehicle: Klucel (hydroxypropylcellulose) (HPC))?
**A.** 0 of 10 on day 29

**Q.** For `Clc1ccc2nnnn2n1`, which survivor count (T/C endpoint: median tumor weight change, dose: 500.0 mg/kg/injection, schedule: Q01DX001 (ip), vehicle: saline with Tween-80) is on record?
**A.** 6 of 10 on day 36

**Q.** What about the survivor count [5] of the same molecule?
**A.** 1 of 10 on day 36

**Q.** What about the survivor count [1] of the same molecule?
**A.** 0 of 10 on day 36

**Q.** What about the survivor count (T/C endpoint: median tumor weight change, dose: 4000.0 mg/kg/injection, schedule: Q01DX001 (ip), vehicle: saline with Tween-80) of the same molecule?
**A.** 0 of 10 on day 36

**Q.** Which T/C [6] does the source give for `COC(=O)C(Cl)(Cl)N=Nc1c(Cl)cc(Cl)c(C)c1Cl` here?
**A.** 131 % of control

**Q.** And the T/C (T/C endpoint: median tumor weight (est.), dose: 100.0 mg/kg/injection, schedule: Q07DX005 (ip), vehicle: saline with Tween-80, evaluated on day 30)?
**A.** 136 % of control

**Q.** What about the survivor count (T/C endpoint: median tumor weight change, dose: 800.0 mg/kg/injection, schedule: Q01DX001 (ip), vehicle: saline with Tween-80) of the same molecule?
**A.** 5 of 10 on day 28

**Q.** What about the survivor count (T/C endpoint: median tumor weight change, dose: 1600.0 mg/kg/injection, schedule: Q01DX001 (ip), vehicle: saline with Tween-80) of the same molecule?
**A.** 2 of 10 on day 28

**Q.** And the survivor count (T/C endpoint: median tumor weight change, dose: 3200.0 mg/kg/injection, schedule: Q01DX001 (ip), vehicle: saline with Tween-80)?
**A.** 0 of 10 on day 28

**Q.** Which results are given for `Cc1cc(NCCCN(C)C)c2ccc3c(ccc4c(NCCCN(C)C)cc(C)nc43)c2n1`?
**A.** survivor count (T/C endpoint: median tumor weight change, dose: 15.62 mg/kg/injection, schedule: Q01DX001 (ip), vehicle: saline): 3 of 10 on day 33; survivor count (T/C endpoint: median tumor weight change, dose: 31.25 mg/kg/injection, schedule: Q01DX001 (ip), vehicle: saline): 1 of 10 on day 33 and 2 of 10 on day 31; survivor count (T/C endpoint: median tumor weight change, dose: 62.5 mg/kg/injection, schedule: Q01DX001 (ip), vehicle: saline): 0 of 10 on day 31; survivor count [2]: 0 of 10 on day 31; survivor count (T/C endpoint: median tumor weight change, dose: 250.0 mg/kg/injection, schedule: Q01DX001 (ip), vehicle: saline): 0 of 10 on day 31; survivor count [3]: 0 of 10 on day 31
